Laboratory results from article PMC12241546, “PRELP functions via multiple interactions with intrinsically weak affinity relying on ECM anchoring and remodeling” (Scientific Reports, 2025).
No constants are given. Whether binding was seen depends on the method and setting. Some entries that bind do so weakly or less than the wild type.

Protein sequences, listed by entry. Tags and fused reporters are not part of them. Residues count along the entry.
UniProt P01137, residues 279-390: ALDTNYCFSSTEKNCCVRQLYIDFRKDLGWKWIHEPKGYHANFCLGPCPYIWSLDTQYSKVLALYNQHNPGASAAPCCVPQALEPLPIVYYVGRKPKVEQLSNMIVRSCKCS
UniProt Q05793, residues 22-3707: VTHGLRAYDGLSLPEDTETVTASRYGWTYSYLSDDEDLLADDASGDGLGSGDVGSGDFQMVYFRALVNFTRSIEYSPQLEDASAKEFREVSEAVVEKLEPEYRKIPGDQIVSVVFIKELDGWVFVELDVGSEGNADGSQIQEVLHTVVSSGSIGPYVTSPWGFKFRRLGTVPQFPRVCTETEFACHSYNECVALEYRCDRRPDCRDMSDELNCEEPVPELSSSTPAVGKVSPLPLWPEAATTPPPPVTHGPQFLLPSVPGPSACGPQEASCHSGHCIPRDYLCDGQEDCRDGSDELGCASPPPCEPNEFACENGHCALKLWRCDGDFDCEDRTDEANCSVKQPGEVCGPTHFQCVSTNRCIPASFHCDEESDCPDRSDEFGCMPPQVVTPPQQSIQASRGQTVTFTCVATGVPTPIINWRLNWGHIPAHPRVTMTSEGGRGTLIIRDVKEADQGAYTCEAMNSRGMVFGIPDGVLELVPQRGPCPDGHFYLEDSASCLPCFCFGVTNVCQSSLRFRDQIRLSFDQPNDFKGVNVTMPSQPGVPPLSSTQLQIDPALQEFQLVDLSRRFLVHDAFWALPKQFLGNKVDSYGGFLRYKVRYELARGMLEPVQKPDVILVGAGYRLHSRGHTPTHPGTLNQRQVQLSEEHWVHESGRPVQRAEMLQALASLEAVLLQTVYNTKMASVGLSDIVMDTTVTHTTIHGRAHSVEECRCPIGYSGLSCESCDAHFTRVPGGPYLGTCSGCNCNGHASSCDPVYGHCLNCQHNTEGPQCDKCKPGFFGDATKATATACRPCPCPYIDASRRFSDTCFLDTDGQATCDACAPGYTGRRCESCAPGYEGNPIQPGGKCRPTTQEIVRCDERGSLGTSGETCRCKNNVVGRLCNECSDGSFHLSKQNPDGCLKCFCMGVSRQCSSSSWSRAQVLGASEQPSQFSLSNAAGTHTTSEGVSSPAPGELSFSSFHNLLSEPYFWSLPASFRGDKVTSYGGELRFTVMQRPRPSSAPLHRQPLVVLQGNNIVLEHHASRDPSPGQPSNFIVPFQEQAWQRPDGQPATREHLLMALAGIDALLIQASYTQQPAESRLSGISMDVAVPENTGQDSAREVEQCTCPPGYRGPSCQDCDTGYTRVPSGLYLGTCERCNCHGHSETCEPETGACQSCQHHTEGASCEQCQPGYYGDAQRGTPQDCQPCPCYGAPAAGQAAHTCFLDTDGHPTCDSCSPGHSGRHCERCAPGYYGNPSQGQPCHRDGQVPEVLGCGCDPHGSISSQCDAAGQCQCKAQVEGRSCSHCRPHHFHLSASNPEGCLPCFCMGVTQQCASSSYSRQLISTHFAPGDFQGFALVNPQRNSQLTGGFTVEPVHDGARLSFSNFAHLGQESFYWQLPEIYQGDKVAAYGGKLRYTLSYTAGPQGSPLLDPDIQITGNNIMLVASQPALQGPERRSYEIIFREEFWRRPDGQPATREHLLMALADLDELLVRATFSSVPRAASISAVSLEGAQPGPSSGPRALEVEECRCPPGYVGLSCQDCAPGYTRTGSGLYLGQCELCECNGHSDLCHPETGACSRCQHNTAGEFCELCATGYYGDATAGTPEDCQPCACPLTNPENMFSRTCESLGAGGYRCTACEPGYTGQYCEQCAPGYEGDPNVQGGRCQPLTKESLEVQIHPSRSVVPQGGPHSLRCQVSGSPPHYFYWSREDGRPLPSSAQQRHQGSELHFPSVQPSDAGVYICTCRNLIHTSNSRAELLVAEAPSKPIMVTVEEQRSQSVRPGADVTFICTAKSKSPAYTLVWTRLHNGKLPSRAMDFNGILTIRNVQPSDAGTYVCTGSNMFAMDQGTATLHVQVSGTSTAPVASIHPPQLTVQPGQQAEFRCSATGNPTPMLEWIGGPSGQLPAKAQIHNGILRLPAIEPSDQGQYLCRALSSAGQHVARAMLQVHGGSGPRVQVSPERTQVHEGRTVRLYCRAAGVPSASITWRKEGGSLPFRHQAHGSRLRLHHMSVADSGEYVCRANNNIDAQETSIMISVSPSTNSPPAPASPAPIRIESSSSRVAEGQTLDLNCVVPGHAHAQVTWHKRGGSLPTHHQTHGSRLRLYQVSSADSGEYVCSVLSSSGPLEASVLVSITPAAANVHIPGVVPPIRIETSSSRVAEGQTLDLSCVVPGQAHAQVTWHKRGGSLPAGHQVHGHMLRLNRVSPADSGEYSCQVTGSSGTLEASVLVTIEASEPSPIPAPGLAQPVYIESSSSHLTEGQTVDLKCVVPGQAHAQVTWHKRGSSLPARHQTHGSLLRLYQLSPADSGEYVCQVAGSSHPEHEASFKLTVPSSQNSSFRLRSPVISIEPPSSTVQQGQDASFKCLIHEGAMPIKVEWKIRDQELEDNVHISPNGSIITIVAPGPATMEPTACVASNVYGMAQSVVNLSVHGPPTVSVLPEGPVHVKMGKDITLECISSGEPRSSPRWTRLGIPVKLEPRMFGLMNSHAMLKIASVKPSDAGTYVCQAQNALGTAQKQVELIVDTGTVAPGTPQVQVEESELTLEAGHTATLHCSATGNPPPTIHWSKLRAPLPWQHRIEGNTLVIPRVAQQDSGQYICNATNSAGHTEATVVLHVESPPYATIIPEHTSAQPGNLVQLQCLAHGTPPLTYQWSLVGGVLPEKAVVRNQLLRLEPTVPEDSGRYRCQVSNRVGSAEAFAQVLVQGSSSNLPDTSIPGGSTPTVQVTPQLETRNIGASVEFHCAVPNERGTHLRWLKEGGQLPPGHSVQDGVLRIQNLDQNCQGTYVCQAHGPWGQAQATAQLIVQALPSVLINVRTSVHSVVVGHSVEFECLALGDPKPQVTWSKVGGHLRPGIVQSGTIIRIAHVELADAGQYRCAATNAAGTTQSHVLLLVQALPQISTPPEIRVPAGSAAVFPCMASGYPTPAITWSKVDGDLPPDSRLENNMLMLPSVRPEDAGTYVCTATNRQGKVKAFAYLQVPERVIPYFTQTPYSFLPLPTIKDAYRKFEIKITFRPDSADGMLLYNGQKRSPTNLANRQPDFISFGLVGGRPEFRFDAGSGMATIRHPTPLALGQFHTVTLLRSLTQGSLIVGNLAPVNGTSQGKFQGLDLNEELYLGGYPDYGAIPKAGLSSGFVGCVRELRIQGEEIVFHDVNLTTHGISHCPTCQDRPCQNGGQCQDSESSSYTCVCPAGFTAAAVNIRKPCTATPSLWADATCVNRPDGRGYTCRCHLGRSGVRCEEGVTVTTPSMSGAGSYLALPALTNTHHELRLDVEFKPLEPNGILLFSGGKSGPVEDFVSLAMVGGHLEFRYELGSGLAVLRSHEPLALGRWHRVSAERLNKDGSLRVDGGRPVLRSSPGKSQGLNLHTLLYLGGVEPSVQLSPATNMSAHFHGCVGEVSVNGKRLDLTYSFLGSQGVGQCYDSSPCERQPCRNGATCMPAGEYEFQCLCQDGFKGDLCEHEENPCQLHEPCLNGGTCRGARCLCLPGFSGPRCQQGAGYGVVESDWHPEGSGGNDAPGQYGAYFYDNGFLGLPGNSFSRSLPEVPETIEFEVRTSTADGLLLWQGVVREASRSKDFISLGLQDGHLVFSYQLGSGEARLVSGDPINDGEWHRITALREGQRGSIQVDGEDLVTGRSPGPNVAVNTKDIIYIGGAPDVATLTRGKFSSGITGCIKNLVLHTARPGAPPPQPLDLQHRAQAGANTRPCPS

B1: Recombinant extracellular domain of human p75NTR (low-affinity nerve growth factor receptor) (receptor, UniProt P08138 29-189, looked up)
chain: KEACPTGLYTHSGECCKACNLGEGVAQPCGANQTVCEPCLDSVTFSDVVSATEPCKPCTECVGLQSMSAPCVEADDAVCRCAYGYYQDETTGRCEACRVCEAGSGLVFSCQDKQNTVCEECPDGTYSDEANHVDPCLPCTVCEDTERQLRECTRWADAECE
notes: also called p75NTR ectodomain; source: Sf9 cells, purified from the culture supernatant (Ni-NTA, SEC)
B2: Recombinant human full-length PRELP (proline/arginine-rich end leucine-rich repeat protein) (natural protein, UniProt P51888 21-382, looked up)
chain: QPTRRPRPGTGPGRRPRPRPRPTPSFPQPDEPAEPTDLPPPLPPGPPSIFPDCPRECYCPPDFPSALYCDSRNLRKVPVIPPRIHYLYLQNNFITELPVESFQNATGLRWINLDNNRIRKIDQRVLEKLPGLVFLYMEKNQLEEVPSALPRNLEQLRLSQNHISRIPPGVFSKLENLLLLDLQHNRLSDGVFKPDTFHGLKNLMQLNLAHNILRKMPPRVPTAIHQLYLDSNKIETIPNGYFKSFPNLAFIRLNYNKLTDRGLPKNSFNISNLLVLHLSHNRISSVPAINNRLEHLYLNNNSIEKINGTQICPNDLVAFHDFSSDLENVPHLRYLRLDGNYLKPPIPLDLMMCFRLLQSVVI
notes: human PRELP, amino acid residues 21-382 (Uniprot numbering); source: Mimic Sf9 cells, purified from the supernatant (DDDDK-tagged Protein Purification Gel, Benzonase, SEC); not shown: FLAG, C-terminal, kept

Assays:
[1] = molecular target: Recombinant mature TGFβ1 dimer (transforming growth factor β1) (human) (UniProt P01137); experiment: SPR; p75NTR with TGFβ1 (Supplementary Fig. S13); who was immobilised is not stated; both purified
mouse perlecan (mouse) = mouse perlecan (mouse) (UniProt Q05793); experiment: ELISA; wells coated with fibronectin (5 µg/mL), perlecan (1 µg/mL) or collagen (5 µg/mL) in PBS; a range of concentrations of full-length PRELP in 10 mM HEPES pH 7.5, 150 mM NaCl, 0.05% Tween-20, room temperature, 1 h; detected with anti-DDDDK-tag mAb HRP; both purified

Binder	binding [1]	binding (mouse perlecan (mouse))
B1	binds weakly	
B2		binds
